Patent US20250197513A1, “OSMR-SPECIFIC MONOCLONAL ANTIBODIES AND METHODS OF THEIR USE” (THE BOARD OF REGENTS OF THE UNIVERSITY OF TEXAS SYSTEM, priority 2021, published 2025)
No constants are given. Whether binding was seen depends on the method and setting. Some binding calls cover weakened binding; strength is not graded here. One block for each binder: values may come before it.

The chains behind the UniProt entries cited, without tags or fusion partners. Residues count along the entry.
UniProt Q8NI17, residues 20-732: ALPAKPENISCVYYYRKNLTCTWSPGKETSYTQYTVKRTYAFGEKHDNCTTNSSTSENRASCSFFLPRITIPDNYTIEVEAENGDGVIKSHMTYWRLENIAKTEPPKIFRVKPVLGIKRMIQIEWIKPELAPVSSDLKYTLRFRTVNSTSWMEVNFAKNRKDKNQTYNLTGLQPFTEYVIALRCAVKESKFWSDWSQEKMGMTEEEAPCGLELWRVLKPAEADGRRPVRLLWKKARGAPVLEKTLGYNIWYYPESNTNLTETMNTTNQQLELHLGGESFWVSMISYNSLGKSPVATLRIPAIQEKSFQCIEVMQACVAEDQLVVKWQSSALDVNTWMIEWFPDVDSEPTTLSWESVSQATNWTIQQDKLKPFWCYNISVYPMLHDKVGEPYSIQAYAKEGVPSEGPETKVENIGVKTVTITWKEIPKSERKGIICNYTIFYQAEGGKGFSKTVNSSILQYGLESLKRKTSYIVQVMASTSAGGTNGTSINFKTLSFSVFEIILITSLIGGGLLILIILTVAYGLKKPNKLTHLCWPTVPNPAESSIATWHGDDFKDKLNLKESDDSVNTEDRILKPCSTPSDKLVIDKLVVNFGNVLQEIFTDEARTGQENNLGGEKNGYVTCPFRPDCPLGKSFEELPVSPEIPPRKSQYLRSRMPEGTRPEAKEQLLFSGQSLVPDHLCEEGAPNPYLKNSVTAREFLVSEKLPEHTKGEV

Tests used:
[1] = target: Interleukin-31 Receptor (IL31RA) on human ovarian cancer cells (human) (UniProt Q8NI17); assay: OSMR immunoprecipitation, immunoblot; IL31-induced heterodimer
[2] = target: T1, interleukin-6 signal transducer (IL6ST) on human ovarian cancer cells (human), P40189; assay: BS3 cross-linking dimerization assay in A2780 sensitive and A2780-CP cells after OSM stimulation; conditions: remark: other sources report otherwise
T1 chain: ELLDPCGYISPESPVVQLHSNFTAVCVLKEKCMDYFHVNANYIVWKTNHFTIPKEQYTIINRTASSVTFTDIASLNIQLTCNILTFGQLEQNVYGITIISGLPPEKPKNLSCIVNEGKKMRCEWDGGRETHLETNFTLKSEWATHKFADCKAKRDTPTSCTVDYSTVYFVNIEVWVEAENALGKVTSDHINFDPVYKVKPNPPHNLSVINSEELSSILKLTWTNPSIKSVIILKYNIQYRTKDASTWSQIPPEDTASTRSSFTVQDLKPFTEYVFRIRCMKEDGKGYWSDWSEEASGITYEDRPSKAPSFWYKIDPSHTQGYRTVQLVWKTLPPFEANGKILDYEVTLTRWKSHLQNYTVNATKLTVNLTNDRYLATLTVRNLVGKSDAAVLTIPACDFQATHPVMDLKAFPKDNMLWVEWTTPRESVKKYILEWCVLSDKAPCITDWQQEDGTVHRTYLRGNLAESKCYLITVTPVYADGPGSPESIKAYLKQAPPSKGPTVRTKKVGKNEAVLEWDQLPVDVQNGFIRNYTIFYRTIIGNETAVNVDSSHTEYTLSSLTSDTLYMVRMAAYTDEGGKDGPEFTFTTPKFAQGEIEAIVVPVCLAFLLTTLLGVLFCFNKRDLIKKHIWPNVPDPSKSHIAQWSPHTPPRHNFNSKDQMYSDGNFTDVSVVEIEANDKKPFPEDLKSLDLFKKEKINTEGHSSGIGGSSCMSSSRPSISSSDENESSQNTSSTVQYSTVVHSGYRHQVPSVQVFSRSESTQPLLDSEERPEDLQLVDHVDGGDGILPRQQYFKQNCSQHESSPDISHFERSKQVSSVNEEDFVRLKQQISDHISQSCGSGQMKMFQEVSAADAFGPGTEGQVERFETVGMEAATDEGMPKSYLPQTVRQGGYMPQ

[3] = target: T1, interleukin-6 signal transducer (IL6ST) …; assay: dimerization assay (cross-linking, immunoprecipitation) after OSM stimulation; conditions: remark: other sources report otherwise

- binding [1]: binds
B1: OSMR on human ovarian cancer cells (HEYA8, OVCAR4, A2780) (receptor, UniProt Q99650 28-979, looked up)
chain: ERLPLTPVSLKVSTNSTRQSLHLQWTVHNLPYHQELKMVFQIQISRIETSNVIWVGNYSTTVKWNQVLHWSWESELPLECATHFVRIKSLVDDAKFPEPNFWSNWSSWEEVSVQDSTGQDILFVFPKDKLVEEGTNVTICYVSRNIQNNVSCYLEGKQIHGEQLDPHVTAFNLNSVPFIRNKGTNIYCEASQGNVSEGMKGIVLFVSKVLEEPKDFSCETEDFKTLHCTWDPGTDTALGWSKQPSQSYTLFESFSGEKKLCTHKNWCNWQITQDSQETYNFTLIAENYLRKRSVNILFNLTHRVYLMNPFSVNFENVNATNAIMTWKVHSIRNNFTYLCQIELHGEGKMMQYNVSIKVNGEYFLSELEPATEYMARVRCADASHFWKWSEWSGQNFTTLEAAPSEAPDVWRIVSLEPGNHTVTLFWKPLSKLHANGKILFYNVVVENLDKPSSSELHSIPAPANSTKLILDRCSYQICVIANNSVGASPASVIVISADPENKEVEEERIAGTEGGFSLSWKPQPGDVIGYVVDWCDHTQDVLGDFQWKNVGPNTTSTVISTDAFRPGVRYDFRIYGLSTKRIACLLEKKTGYSQELAPSDNPHVLVDTLTSHSFTLSWKDYSTESQPGFIQGYHVYLKSKARQCHPRFEKAVLSDGSECCKYKIDNPEEKALIVDNLKPESFYEFFITPFTSAGEGPSATFTKVTTPDEHSSMLIHILLPMVFCVLLIMVMCYLKSQWIKETCYPDIPDPYKSSILSLIKFKENPHLIIMNVSDCIPDAIEVVSKPEGTKIQFLGTRKSLTETELTKPNYLYLLPTEKNHSGPGPCICFENLTYNQAASDSGSCGHVPVSPKAPSMLGLMTSPENVLKALEKNYMNSLGEIPAGETSLNYVSQLASPMFGDKDSLPTNPVEAPHCSEYKMQMAVSLRLALPPPTENSSLSSITLLDPGEHYC

- binding [2]: binds
- binding [3]: binds
B2: OSMR on human ovarian cancer cells (HEYA8, OVCAR4, A2780), Q99650 28-979 (receptor, UniProt Q99650 28-979, looked up)
chain: B1 chain
